This note sets out measurements from the supplement of paper PMC10735217.

Where a name gives a salt, the structure may show the parent alone. Some of the results follow. This data set is noisy: repeats of one test often differ as much as different tests do.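 In a drug-repurposing library screen, luminescence reads luciferase driven by eight TEAD-binding elements, stably integrated into human kidney-derived cells. Compounds scoring over five robust Z scores above the plate mean are called hits.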

The test has as its system HEK293A TEAD-LUC reporter. As to the kind of experiment: TEAD-luciferase reporter activity (YAP activation), robust Z score vs plate; higher = stronger YAP/TEAD activation. The following applies: 24 h.

Turning to `N#Cc1ccc2[nH]cc(CCCCN3CCN(c4ccc5oc(C(N)=O)cc5c4)CC3)c2c1` [Vilazodone hydrochloride], the TEAD-luciferase reporter activity by setting is: (compound concentration: 200 nM) inactive: -0.188; (compound concentration: 2 uM) inactive: -1.21; (compound concentration: 10 uM) inactive: 1.19.

Take `Cc1cc2ncc(C(=O)N3CCCCC3)cn2n1`: the TEAD-luciferase reporter activity was inactive: -2.93 (compound concentration: 200 nM) and inactive: 4.71 (compound concentration: 10 uM).

Take `Cc1ccc(C2(O)CCN(CCCC(=O)c3ccc(F)cc3)CC2)cc1`: the TEAD-luciferase reporter activity (compound concentration: 200 nM) was active: 5.12, the TEAD-luciferase reporter activity (compound concentration: 2 uM) was inactive: -1.44 and the TEAD-luciferase reporter activity (compound concentration: 10 uM) is inactive: -0.241.

With `Cc1ccc2c(c1)-c1nc(-c3cccnc3)[nH]c1CCC2`, the TEAD-luciferase reporter activity (compound concentration: 200 nM) is inactive: -0.575, the TEAD-luciferase reporter activity (compound concentration: 2 uM) was inactive: 0.721 and the TEAD-luciferase reporter activity (compound concentration: 10 uM) is inactive: 0.643.

Regarding `O=C(CCc1ccncc1)Nc1cc(N2CCOC2=O)ccc1F`, the TEAD-luciferase reporter activity by setting is: (compound concentration: 200 nM) inactive: -1.09; (compound concentration: 2 uM) inactive: 1.12; (compound concentration: 10 uM) inactive: 0.0771.

In the case of `NC[C@H](O)c1ccc(O)c(O)c1` [(-)-Norepinephrine], the TEAD-luciferase reporter activity is inactive: -0.762 (compound concentration: 200 nM) and inactive: -0.784 (compound concentration: 10 uM).

As to `NC[C@H](O)c1ccc(O)c(O)c1` [Noradrenaline], the TEAD-luciferase reporter activity (compound concentration: 2 uM) is inactive: -1.45.

Take `C[C@H](NC(=O)[C@@H](Cc1ccc2ccccc2c1)NC(=O)[C@@H](C)N)C(=O)N[C@@H](Cc1c[nH]c2ccccc12)C(=O)N[C@H](Cc1ccccc1)C(=O)N[C@@H](CCCCN)C(N)=O` [Pralmorelin]: the TEAD-luciferase reporter activity runs as follows: (compound concentration: 200 nM) inactive: 0.0135; (compound concentration: 2 uM) inactive: -0.866; (compound concentration: 10 uM) inactive: 0.585.

For `COc1ccc(-n2cc(C(=O)N3CCCC(C)C3)ccc2=O)cc1` (stereo not drawn), the TEAD-luciferase reporter activity (compound concentration: 200 nM) is inactive: -0.51, the TEAD-luciferase reporter activity (compound concentration: 2 uM) is inactive: 1.39 and the TEAD-luciferase reporter activity (compound concentration: 10 uM) was inactive: -0.474.

In the case of `CC1CCc2c(N3CCN(C)CC3)c(F)cc3c(=O)c(C(=O)O)cn1c23` (stereo not drawn), the TEAD-luciferase reporter activity is inactive: -2.29 (compound concentration: 200 nM), inactive: -1.22 (compound concentration: 2 uM) and inactive: 1.02 (compound concentration: 10 uM).

Take `CCc1nc2c(C)cc(C)nc2n1Cc1ccc2nc(-c3ccccc3C(=O)OC)ccc2c1`: the TEAD-luciferase reporter activity (compound concentration: 200 nM) is inactive: -1.02, the TEAD-luciferase reporter activity (compound concentration: 2 uM) was inactive: -0.273 and the TEAD-luciferase reporter activity (compound concentration: 10 uM) is inactive: -1.96.

In the case of `O=S(=O)(O)c1cc(O)ccc1O` [Calcium dobesilate], the TEAD-luciferase reporter activity (compound concentration: 2 uM) was inactive: -0.431.

Take `O=S(=O)(O)c1cc(O)ccc1O` [Ethamsylate]: the TEAD-luciferase reporter activity runs as follows: (compound concentration: 200 nM) inactive: -1.67; (compound concentration: 10 uM) inactive: 0.141.

On to `C#C[C@@]1(CO)C=C[C@H](n2cc(C)c(=O)[nH]c2=O)O1`, for which the TEAD-luciferase reporter activity (compound concentration: 200 nM) was inactive: 0.731 and the TEAD-luciferase reporter activity (compound concentration: 10 uM) is inactive: 1.12.

As to `Oc1nc(O)c(Cc2ccc3cc(OCc4ccccc4F)ccc3c2)s1` [netoglitazone], the TEAD-luciferase reporter activity reads like this: (compound concentration: 200 nM) inactive: -0.757; (compound concentration: 2 uM) inactive: 1.32; (compound concentration: 10 uM) active: 6.46.

In the case of `CCNC1CC(N)C(OC2OC(CN)=CCC2N)C(O)C1OC1OCC(C)(O)C(NC)C1O` (stereo not drawn) [netilmicin], the TEAD-luciferase reporter activity (compound concentration: 2 uM) was inactive: -0.949 and the TEAD-luciferase reporter activity (compound concentration: 10 uM) is inactive: -1.69.

`COc1ccc(-c2cnn(CC(C)=O)c(=O)n2)cc1`: the TEAD-luciferase reporter activity (compound concentration: 200 nM) was inactive: -1.83, the TEAD-luciferase reporter activity (compound concentration: 2 uM) was inactive: -0.861 and the TEAD-luciferase reporter activity (compound concentration: 10 uM) was inactive: 0.153.

In the case of `CCC1OC(=O)CC(O)C(C)C(OC2OC(C)CC(N(C)C)C2O)C(CC=O)CC(C)C(=O)/C=C/C2(C)OC2C1C` (stereo not drawn) [rosaramicin], the TEAD-luciferase reporter activity is, setting by setting: (compound concentration: 200 nM) inactive: -0.729; (compound concentration: 2 uM) inactive: -0.783; (compound concentration: 10 uM) inactive: 1.3.

With `CC[C@H]1[C@@H](O)[C@@H]2[C@H](CC[C@]3(C)[C@@H]([C@H](C)CCC(=O)O)CC[C@@H]23)[C@@]2(C)CC[C@@H](O)C[C@@H]12`, the TEAD-luciferase reporter activity (compound concentration: 200 nM) was inactive: -0.773 and the TEAD-luciferase reporter activity (compound concentration: 10 uM) is inactive: -1.02.

As for `CC[C@H]1[C@@H](O)[C@@H]2[C@H](CC[C@]3(C)[C@@H]([C@H](C)CCC(=O)O)CC[C@@H]23)[C@@]2(C)CC[C@@H](O)C[C@@H]12` [Obeticholic acid], the TEAD-luciferase reporter activity (compound concentration: 2 uM) is inactive: 0.135.

Consider `CCOc1cc(CC(=O)N[C@@H](CC(C)C)c2ccccc2N2CCCCC2)ccc1C(=O)O` [repaglinide], for which, where the note is “compound concentration: 2 uM”, the TEAD-luciferase reporter activity is inactive: -0.771.

`CCOc1cc(CC(=O)N[C@@H](CC(C)C)c2ccccc2N2CCCCC2)ccc1C(=O)O`: the TEAD-luciferase reporter activity runs as follows: (compound concentration: 200 nM) inactive: -0.661; (compound concentration: 10 uM) inactive: -0.838.

As to `Cc1occc1C(=S)Nc1ccc(Cl)c(/C=N/OC(C)(C)C)c1`, the TEAD-luciferase reporter activity by setting is: (compound concentration: 200 nM) inactive: 0.385; (compound concentration: 2 uM) inactive: -0.907; (compound concentration: 10 uM) active: 6.44.

On to `O=C(O)c1cn(C2CC2)c2cc(N3CCC(O)(COc4ccc(N5C[C@H](CO)OC5=O)cc4F)CC3)c(F)cc2c1=O` [Cadazolid], for which the TEAD-luciferase reporter activity runs as follows: (compound concentration: 200 nM) inactive: -1.04; (compound concentration: 2 uM) inactive: -1.14; (compound concentration: 10 uM) inactive: 2.66.

With `COc1ccc(CC(=O)N2CCCC3(Cc4ccccc4CN3C(C)=O)C2)cc1` (stereo not drawn), the TEAD-luciferase reporter activity (compound concentration: 200 nM) was inactive: -0.795 and the TEAD-luciferase reporter activity (compound concentration: 10 uM) was inactive: -0.197.

For `O=C(NCCNC(=O)c1ccccn1)c1ccc(-c2cccc(C(F)(F)F)c2)cc1`, the TEAD-luciferase reporter activity is inactive: -0.894 (compound concentration: 200 nM) and inactive: -1.14 (compound concentration: 10 uM).

With `O=C1CC(c2ccccc2)Oc2cc(O)cc(O)c21` (stereo not drawn) [Pinocembrin], the TEAD-luciferase reporter activity is inactive: 0.948 (compound concentration: 200 nM), inactive: -0.405 (compound concentration: 2 uM) and inactive: -1.42 (compound concentration: 10 uM).

Take `C[C@H](CC(=O)O)[C@H]1CC[C@H]2[C@@H]3[C@@H](O)C[C@@H]4C[C@H](O)CCC4(C)[C@H]3CCC12C` (stereo partly drawn) [24-norUrsodeoxycholic acid]: the TEAD-luciferase reporter activity (compound concentration: 200 nM) was inactive: -0.889, the TEAD-luciferase reporter activity (compound concentration: 2 uM) is inactive: 1.51 and the TEAD-luciferase reporter activity (compound concentration: 10 uM) was inactive: -1.5.

Turning to `CCOC(=O)C1=CC2(CC)CCCN3CCc4c(n1c1ccccc41)C32` (stereo not drawn) [vinpocetine], the TEAD-luciferase reporter activity runs as follows: (compound concentration: 200 nM) inactive: -0.35; (compound concentration: 2 uM) inactive: -0.628; (compound concentration: 10 uM) active: 5.34.

Regarding `CN(C)CCOC(=O)C1Oc2ccccc2-c2ccccc21` (stereo not drawn), the TEAD-luciferase reporter activity was inactive: -0.26 (compound concentration: 200 nM), inactive: -0.0554 (compound concentration: 2 uM) and inactive: 1.78 (compound concentration: 10 uM).
